Test results published in publication PMC11109380.
No constants are given. Whether binding was seen depends on the method and setting. In cells and extracts the contact can be indirect. Some entries that bind do so weakly or less than the wild type.

By UniProt entry, the sequences of proteins in these tests, tags left out. Where a name states a change or a piece, a line headed by the entry shows the natural chain unless it says otherwise. Chains listed by the source or under a name are the forms on record and can include a tag or linker. Residues count along the entry.
UniProt P07766: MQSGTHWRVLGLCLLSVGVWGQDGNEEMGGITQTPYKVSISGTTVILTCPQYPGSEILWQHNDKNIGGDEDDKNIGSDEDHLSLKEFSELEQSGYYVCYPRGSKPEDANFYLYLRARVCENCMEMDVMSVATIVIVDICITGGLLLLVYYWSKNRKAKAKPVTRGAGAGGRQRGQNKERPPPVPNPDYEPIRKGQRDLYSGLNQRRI
human CD3ε WT-FLAG expressed in JK εKO cells: residues 23-207 of P07766
human CD3ε cytoplasmic tail fused to GST, WT: residues 153-207 of P07766
UniProt P06239: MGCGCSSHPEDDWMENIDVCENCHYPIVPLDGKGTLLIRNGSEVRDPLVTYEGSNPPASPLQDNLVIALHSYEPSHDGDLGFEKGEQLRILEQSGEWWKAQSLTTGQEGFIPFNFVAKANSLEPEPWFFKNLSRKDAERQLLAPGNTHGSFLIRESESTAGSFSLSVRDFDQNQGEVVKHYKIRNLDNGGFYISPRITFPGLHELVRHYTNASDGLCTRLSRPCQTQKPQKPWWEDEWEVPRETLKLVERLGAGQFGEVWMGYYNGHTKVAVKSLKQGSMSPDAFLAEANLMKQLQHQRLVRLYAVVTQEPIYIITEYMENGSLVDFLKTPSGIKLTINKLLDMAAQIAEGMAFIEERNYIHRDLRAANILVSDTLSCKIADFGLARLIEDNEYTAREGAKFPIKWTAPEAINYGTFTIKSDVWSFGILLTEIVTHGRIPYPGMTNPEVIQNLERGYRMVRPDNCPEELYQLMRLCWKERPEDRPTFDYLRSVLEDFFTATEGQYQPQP

Legend:
[1] = molecular target: human CD3ε cytoplasmic tail fused to GST, WT (human) (UniProt P07766); assay: pull-down; GST-CD3ε cytoplasmic tail variants on glutathione sepharose beads, incubated with Jurkat T cell lysate (lysis buffer with 0.3% Brij96V, 20 mM Tris-HCl pH 8, 137 mM NaCl) overnight at 4°C; immunoblot, signals normalised to GST; only the target purified
[2] = molecular target: human CD3ε WT-FLAG expressed in JK εKO cells (human) (UniProt P07766); assay: proximity ligation; in situ PLA (Duolink) with goat anti-CD3ε and mouse anti-LCK in JK εKO cells expressing hCD3ε variants; unstimulated or stimulated with 5 μg/ml anti-CD3ε (OKT3) for 5 min at 37°C; dots per cell normalised to the stimulated WT

With “Src family kinase LCK (from UniProt P06239 1-509) (enzyme)” the binding [1] was “binds” and the binding [2] was “binds”.
